Literature values as cited in US20180284402A1, “TOPICAL ANALGESIC PAIN RELIEF FORMULATIONS, MANUFACTURE AND METHODS OF USE THEREOF” (priority 2016, published 2018).
At least one compound was matched to its structure with a doubt left.

Legend:
[1] = test system: capsaicin-evoked pain-related behavior; conditions: mice
TRPV1 = conditions: compared with docosahexaenoic acid; Matta 2007

Question: Which capsaicin-evoked pain-related behavior [1] does the source give for `CC/C=C\C/C=C\C/C=C\C/C=C\C/C=C\C/C=C\CCC(=O)O` [docosahexaenoic acid] here?
Answer: not

Question: With `CC/C=C\C/C=C\C/C=C\C/C=C\C/C=C\CCCC(=O)O` [eicosapentaenoic acid] as the molecule, how does the TRPV1 inhibition (TRPV1) read?
Answer: markedly more effective inhibitors

Question: And the capsaicin-evoked pain-related behavior [1]?
Answer: profoundly reduced
